Experimental data: PubChem BioAssay AID624134 (Broad Institute, 2012)
Where “and” joins values, the source holds several entries; their conditions need not be identical. Equal values may be shown once. About 1,100 (69%) of roughly 1,600 compounds were called active. The set was probably picked from earlier hits. This list was built around the results that the source calls inconclusive (neither active nor inactive); the mix of calls is not that of the screen.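 The calls were made as follows: active = signal drop with fitted half-maximal concentration no higher than twice the top valid tested concentration; inconclusive = flat curve with 30 to 70% signal loss, or poor fit; inactive = the rest, including signal rises and flat curves within 30%.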

Assay: HepG2 cell cytotoxicity, dose response, cytotoxicity control for Shn3 inhibitor project, CellTiter-Glo, cherry-picked (AID 624134);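 also: 0% = median of neutral control wells and -100% = median of positive control wells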
Conditions: HepG2 viability, CellTiter-Glo ATP luminescence, 48 h; at 35 µM (top of the series)

**Q.** With `CC(C)(C)c1ccc(CSc2cnn(C(C)(C)C)c(=O)c2Cl)cc1` as the compound, how does the activity change, negative = cytotoxicity read?
**A.** The activity change, negative = cytotoxicity was inconclusive: -55.2%.

**Q.** Which activity change, negative = cytotoxicity does the source give for `C[C@H]1CCC/C=C/[C@@H]2C[C@H](O)C[C@H]2[C@H](O)/C=C/C(=O)O1` here?
**A.** The activity change, negative = cytotoxicity was inconclusive: -36.6% and inconclusive: -53.6%.

**Q.** With `C[C@H]1CCC/C=C/[C@@H]2C[C@H](O)C[C@H]2[C@@H](O)/C=C/C(=O)O1` as the compound, how does the activity change, negative = cytotoxicity read?
**A.** Its activity change, negative = cytotoxicity is inconclusive: -49%.
